# The list shows a part of the results.
# The chains behind the UniProt entries cited, without tags or fusion partners. Where a name states a change or a piece, a line headed by the entry shows the natural chain unless it says otherwise.
# UniProt Q9NTX5: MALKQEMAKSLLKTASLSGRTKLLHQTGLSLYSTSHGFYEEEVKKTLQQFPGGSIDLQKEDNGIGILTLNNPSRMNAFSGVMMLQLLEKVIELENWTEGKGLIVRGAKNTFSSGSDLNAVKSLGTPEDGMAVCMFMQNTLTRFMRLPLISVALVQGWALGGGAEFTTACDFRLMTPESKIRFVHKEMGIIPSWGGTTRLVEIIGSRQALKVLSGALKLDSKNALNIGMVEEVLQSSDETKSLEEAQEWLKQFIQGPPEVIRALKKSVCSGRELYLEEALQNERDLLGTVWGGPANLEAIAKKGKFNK
# UniProt P23919: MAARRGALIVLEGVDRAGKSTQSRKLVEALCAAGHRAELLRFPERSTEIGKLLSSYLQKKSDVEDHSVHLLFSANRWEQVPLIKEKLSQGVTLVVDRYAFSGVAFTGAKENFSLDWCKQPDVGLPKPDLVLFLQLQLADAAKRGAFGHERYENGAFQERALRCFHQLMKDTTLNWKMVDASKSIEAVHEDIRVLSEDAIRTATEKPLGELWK
# UniProt Q9NRW4: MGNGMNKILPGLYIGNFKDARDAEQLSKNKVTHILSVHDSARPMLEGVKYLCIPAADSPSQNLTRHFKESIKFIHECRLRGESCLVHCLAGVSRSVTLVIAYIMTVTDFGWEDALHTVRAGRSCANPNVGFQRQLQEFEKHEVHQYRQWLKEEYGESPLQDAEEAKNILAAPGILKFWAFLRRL
# UniProt O00418: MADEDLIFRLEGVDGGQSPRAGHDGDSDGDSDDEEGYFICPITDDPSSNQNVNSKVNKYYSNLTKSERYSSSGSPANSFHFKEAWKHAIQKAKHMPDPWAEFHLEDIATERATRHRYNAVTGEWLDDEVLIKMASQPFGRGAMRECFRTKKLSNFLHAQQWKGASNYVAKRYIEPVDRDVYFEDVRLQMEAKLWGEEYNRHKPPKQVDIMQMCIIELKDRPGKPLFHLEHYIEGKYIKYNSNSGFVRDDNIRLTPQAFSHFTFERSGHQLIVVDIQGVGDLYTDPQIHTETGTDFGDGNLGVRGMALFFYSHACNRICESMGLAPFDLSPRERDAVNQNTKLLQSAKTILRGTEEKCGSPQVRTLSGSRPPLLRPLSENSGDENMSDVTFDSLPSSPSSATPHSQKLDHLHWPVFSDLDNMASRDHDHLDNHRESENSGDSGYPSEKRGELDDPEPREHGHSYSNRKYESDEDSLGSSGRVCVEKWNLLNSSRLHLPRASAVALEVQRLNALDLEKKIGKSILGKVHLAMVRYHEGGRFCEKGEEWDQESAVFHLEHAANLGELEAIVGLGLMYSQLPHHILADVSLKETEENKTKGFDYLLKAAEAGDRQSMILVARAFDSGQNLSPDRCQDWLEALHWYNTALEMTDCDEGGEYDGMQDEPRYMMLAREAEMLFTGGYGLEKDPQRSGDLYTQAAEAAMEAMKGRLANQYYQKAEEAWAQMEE
# UniProt P98172: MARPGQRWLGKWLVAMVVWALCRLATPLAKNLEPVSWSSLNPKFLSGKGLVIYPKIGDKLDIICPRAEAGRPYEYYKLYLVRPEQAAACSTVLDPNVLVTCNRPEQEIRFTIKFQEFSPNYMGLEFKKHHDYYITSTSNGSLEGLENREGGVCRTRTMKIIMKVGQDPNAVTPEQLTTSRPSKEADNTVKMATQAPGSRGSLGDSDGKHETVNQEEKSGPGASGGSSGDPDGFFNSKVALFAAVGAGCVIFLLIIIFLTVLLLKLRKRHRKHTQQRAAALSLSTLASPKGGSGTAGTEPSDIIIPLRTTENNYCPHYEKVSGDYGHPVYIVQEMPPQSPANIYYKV
# UniProt P51452: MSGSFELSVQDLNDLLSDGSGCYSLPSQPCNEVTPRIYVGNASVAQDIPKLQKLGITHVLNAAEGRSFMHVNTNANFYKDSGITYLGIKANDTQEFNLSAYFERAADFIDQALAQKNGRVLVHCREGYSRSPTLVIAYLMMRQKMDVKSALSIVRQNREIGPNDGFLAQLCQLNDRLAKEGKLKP
# UniProt Q9H9B1: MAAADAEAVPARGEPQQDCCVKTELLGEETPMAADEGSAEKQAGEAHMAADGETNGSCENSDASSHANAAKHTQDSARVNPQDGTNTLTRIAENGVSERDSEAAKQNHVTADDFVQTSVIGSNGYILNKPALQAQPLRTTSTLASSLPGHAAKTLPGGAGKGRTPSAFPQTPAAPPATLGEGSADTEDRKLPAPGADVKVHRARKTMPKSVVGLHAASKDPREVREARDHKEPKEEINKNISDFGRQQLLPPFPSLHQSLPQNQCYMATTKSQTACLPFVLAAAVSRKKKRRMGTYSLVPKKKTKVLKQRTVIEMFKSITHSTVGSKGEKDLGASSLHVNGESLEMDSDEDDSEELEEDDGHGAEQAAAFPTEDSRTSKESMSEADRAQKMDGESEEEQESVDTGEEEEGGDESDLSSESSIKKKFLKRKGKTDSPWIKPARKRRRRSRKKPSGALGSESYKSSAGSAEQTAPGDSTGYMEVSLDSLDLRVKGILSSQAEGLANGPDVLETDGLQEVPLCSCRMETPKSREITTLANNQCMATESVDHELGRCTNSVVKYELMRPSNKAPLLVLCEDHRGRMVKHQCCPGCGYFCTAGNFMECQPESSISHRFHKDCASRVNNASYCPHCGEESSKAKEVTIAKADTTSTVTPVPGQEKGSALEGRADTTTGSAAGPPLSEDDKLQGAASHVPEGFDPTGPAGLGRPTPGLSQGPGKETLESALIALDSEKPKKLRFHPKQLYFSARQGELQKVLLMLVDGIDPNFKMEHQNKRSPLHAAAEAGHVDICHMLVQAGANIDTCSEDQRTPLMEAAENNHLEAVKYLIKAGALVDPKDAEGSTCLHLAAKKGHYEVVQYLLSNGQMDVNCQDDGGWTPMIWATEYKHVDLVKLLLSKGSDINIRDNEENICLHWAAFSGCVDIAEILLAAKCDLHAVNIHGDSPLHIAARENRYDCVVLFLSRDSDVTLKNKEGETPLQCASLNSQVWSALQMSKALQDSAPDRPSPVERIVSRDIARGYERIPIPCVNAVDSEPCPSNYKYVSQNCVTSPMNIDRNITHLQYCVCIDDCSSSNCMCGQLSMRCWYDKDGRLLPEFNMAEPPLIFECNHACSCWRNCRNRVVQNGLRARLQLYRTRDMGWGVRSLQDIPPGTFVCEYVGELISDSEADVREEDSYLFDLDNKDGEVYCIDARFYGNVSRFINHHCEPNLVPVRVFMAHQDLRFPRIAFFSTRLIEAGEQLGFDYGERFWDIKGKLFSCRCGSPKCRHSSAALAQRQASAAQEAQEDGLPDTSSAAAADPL
# UniProt P26641, whole entry, looked up: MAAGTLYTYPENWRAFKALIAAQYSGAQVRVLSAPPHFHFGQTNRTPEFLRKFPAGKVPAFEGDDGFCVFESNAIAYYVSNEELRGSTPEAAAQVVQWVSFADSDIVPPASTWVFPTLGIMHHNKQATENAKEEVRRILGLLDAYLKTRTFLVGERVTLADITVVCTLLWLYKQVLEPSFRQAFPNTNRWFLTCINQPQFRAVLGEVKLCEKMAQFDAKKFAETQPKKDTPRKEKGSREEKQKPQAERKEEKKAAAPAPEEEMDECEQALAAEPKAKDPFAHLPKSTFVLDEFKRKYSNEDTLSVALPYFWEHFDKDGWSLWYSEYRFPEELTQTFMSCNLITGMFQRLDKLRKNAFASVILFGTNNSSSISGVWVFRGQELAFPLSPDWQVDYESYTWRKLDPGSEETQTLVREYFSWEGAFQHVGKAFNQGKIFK
# UniProt O60869: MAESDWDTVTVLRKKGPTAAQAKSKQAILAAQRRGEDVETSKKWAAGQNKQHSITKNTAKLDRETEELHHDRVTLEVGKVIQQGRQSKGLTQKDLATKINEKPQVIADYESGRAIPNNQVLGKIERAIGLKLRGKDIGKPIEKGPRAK
# UniProt Q16610: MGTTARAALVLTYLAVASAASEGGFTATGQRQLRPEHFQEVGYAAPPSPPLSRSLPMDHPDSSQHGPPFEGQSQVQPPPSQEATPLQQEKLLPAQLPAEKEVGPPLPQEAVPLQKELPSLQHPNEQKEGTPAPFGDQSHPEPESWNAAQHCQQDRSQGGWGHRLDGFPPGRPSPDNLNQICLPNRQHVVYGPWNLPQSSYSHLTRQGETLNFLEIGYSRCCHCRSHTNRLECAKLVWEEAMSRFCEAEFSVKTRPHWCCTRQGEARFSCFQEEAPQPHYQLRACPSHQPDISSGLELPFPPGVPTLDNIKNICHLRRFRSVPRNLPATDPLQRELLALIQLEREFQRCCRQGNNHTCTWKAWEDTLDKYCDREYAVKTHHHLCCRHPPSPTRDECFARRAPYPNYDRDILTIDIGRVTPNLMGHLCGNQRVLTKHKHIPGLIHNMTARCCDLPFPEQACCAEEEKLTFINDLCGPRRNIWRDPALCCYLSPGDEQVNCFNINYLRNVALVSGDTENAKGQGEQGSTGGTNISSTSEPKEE
# UniProt Q14156: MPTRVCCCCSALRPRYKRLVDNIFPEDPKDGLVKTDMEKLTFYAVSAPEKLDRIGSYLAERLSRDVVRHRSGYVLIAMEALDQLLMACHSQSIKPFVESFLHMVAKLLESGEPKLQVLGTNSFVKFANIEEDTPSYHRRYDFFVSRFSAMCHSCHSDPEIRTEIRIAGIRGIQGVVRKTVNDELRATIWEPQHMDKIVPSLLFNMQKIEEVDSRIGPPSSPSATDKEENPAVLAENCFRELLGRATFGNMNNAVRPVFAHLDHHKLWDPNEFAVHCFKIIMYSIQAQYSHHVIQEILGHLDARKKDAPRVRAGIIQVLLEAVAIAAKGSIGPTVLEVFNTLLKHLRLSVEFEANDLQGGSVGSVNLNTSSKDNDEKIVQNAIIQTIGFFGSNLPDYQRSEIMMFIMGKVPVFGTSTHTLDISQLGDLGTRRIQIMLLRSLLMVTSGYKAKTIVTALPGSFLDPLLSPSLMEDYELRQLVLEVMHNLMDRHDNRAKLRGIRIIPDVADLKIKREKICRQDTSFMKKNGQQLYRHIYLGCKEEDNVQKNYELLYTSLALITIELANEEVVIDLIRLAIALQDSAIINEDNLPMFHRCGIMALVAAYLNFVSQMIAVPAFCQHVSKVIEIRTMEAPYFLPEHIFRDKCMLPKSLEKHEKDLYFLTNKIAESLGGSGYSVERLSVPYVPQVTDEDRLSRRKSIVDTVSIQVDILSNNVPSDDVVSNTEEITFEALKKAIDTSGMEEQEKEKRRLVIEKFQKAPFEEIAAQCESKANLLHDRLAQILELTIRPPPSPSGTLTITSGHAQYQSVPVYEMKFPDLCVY
# UniProt Q66K89: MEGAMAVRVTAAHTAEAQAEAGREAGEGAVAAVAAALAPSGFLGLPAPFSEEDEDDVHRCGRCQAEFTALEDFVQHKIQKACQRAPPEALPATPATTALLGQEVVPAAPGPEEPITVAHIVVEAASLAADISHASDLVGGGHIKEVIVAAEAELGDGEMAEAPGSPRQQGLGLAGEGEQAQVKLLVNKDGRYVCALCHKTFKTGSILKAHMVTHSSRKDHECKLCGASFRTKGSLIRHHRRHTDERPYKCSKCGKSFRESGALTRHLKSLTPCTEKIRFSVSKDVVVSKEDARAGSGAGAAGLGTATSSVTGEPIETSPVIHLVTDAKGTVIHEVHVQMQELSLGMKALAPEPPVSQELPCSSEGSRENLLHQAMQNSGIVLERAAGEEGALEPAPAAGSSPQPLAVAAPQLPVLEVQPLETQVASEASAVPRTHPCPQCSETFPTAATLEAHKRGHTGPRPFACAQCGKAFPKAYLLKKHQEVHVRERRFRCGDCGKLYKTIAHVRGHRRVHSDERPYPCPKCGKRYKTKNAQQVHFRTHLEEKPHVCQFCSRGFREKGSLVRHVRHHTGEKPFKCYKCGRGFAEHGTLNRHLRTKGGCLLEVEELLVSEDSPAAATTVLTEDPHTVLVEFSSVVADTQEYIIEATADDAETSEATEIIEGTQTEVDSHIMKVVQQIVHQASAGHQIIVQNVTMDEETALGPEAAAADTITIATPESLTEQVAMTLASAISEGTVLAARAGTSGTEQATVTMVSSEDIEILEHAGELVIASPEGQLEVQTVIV
# UniProt Q9H223: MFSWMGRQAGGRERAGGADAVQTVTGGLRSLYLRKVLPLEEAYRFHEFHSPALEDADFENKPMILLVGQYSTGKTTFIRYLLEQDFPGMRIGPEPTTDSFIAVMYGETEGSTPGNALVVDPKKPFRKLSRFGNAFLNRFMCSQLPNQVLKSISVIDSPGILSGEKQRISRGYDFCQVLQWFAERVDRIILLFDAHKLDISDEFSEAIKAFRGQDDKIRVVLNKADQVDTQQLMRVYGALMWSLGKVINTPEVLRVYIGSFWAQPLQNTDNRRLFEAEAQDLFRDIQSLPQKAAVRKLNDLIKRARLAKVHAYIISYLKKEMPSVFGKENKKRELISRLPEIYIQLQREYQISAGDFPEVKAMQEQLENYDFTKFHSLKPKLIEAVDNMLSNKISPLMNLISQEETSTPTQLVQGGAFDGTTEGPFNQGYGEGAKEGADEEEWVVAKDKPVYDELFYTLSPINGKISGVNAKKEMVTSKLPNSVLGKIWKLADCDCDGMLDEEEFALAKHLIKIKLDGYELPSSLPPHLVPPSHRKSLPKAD
# Compound: COc1cc2ncnc(Nc3ccc(F)c(Cl)c3)c2cc1OCCCN1CCOCC1 [gefitinib]
# Assay: log2 fold change, soluble protein after heating vs DMSO (PISA); higher = thermal stabilisation; K562 lysate, 10 uM; active = over 0.2 and 3.5 SD of the protein, either way, in both replicates (recomputed)
# How it was run: (§1)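 Dounce homogenisation of K562 pellets in PBS pH 7.4 with 1 mM MgCl2 produced a crude extract, used at 1 mg/mL protein. Exposure to 10 μM compound lasted 30 min, and aliquots were then heated for 3 min across 48°C-58°C, pooled and brought to 0.5% NP-40 at 4°C. The supernatant after 21,000xg for 90 min was quantified by TMTpro 16plex LC-MS/MS with channel sums equalised. Duplicate values are given as log-two fold change in thermal stability relative to solvent controls.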
row,Target,log2 fold change
1,DVL3 (UniProt Q92997),inactive: 0.015
2,DYNC2H1 isoform 2 (UniProt Q8NCM8),inactive: -0.062
3,ECHDC1 (UniProt Q9NTX5),inactive: 0.063
4,EDEM2 (UniProt Q9BV94),inactive: -0.065
5,EEF2KMT (UniProt Q96G04),inactive: 0.209
6,DTYMK (UniProt P23919),inactive: -0.011
7,DUSP22 isoform 2 (UniProt Q9NRW4),inactive: -0.101
8,EHHADH (UniProt Q08426),inactive: 0.012
9,EEF2K (UniProt O00418),inactive: -0.039
10,DTL (UniProt Q9NZJ0),inactive: 0.043
11,"EED, A0A5F9ZI63",inactive: -0.025
12,EID1 (UniProt Q9Y6B2),inactive: 0.022
13,EEA1 (UniProt Q15075),inactive: -0.01
14,EFCAB2 isoform 2 (UniProt Q5VUJ9),inactive: 0.024
15,EHBP1 isoform 2 (UniProt Q8NDI1),inactive: 0.044
16,EFNB1 (UniProt P98172),inactive: 0.017
17,DUSP3 (UniProt P51452),inactive: -0.036
18,EHMT1 (UniProt Q9H9B1),inactive: 0.038
19,DPY19L4 (UniProt Q7Z388),inactive: -0.037
20,EDC4 (UniProt Q6P2E9),inactive: -0.017
21,EEF1G isoform 2 (UniProt P26641),inactive: -0.008
22,EDF1 (UniProt O60869),inactive: -0.001
23,ECM1 isoform 4 (UniProt Q16610),inactive: 0.047
24,EFR3A (UniProt Q14156),inactive: -0.066
25,DPY30 (UniProt Q9C005),inactive: -0.307
26,E4F1 (UniProt Q66K89),inactive: -0.076
27,EHD4 (UniProt Q9H223),inactive: 0.019

# Compound: CS(=O)(=O)CCNCc1ccc(-c2ccc3ncnc(Nc4ccc(OCc5cccc(F)c5)c(Cl)c4)c3c2)o1 [lapatinib]
# Assay: as above
# How it was run: as §1
row,Target,log2 fold change
1,DVL3 (UniProt Q92997),inactive: -0.055
2,DYNC2H1 isoform 2 (UniProt Q8NCM8),inactive: -0.058
3,ECHDC1 (UniProt Q9NTX5),inactive: 0.025
4,EDEM2 (UniProt Q9BV94),inactive: -0.098
5,DTYMK (UniProt P23919),inactive: 0.026
6,DUSP22 isoform 2 (UniProt Q9NRW4),inactive: 0.031
7,EHHADH (UniProt Q08426),inactive: -0.037
8,EEF2K (UniProt O00418),inactive: 0.051
9,"EED, A0A5F9ZI63",inactive: 0.047
10,EEA1 (UniProt Q15075),inactive: -0.004
11,EHBP1 isoform 2 (UniProt Q8NDI1),inactive: 0.007
12,EFNB1 (UniProt P98172),inactive: 0.028
13,DUSP3 (UniProt P51452),inactive: -0.016
14,EHMT1 (UniProt Q9H9B1),inactive: -0.014
15,EDC4 (UniProt Q6P2E9),inactive: -0.025
16,EEF1G isoform 2 (UniProt P26641),inactive: -0.001
17,DTD2 (UniProt Q96FN9),inactive: -0.049
18,EDF1 (UniProt O60869),inactive: -0.04
19,ECM1 isoform 4 (UniProt Q16610),inactive: -0.016
20,DYSF isoform 13 (UniProt O75923),inactive: -0.042
21,DYNC1I2 isoform 2 (UniProt Q13409),inactive: 0.029
22,EFR3A (UniProt Q14156),inactive: -0.038
23,DPY30 (UniProt Q9C005),inactive: -0.012
24,E4F1 (UniProt Q66K89),inactive: 0.08
25,EHD4 (UniProt Q9H223),inactive: -0.022

# Compound: CS(=O)(=O)N1CCN(Cc2cc3nc(-c4cccc5[nH]ncc45)nc(N4CCOCC4)c3s2)CC1 [pictilisib]
# Assay: as above
# How it was run: as §1
row,Target,log2 fold change
1,DVL3 (UniProt Q92997),inactive: -0.055
2,DYNC2H1 isoform 2 (UniProt Q8NCM8),inactive: -0.078
3,ECHDC1 (UniProt Q9NTX5),inactive: -0.01
4,DTYMK (UniProt P23919),inactive: -0.003
5,DUSP22 isoform 2 (UniProt Q9NRW4),inactive: -0.082
6,EHHADH (UniProt Q08426),inactive: 0.143
7,EEF2K (UniProt O00418),inactive: -0.027
8,DTL (UniProt Q9NZJ0),inactive: -0.026
9,"EED, A0A5F9ZI63",inactive: -0.014
10,EEA1 (UniProt Q15075),inactive: 0.002
11,EHBP1 isoform 2 (UniProt Q8NDI1),inactive: -0.012
12,EFNB1 (UniProt P98172),inactive: -0.051
13,DUSP3 (UniProt P51452),inactive: -0.038
14,EHMT1 (UniProt Q9H9B1),inactive: -0.005
15,DPY19L4 (UniProt Q7Z388),inactive: -0.202
16,EDC4 (UniProt Q6P2E9),inactive: -0.029
17,EEF1G isoform 2 (UniProt P26641),inactive: -0.01
18,DTD2 (UniProt Q96FN9),inactive: 0.081
19,EDF1 (UniProt O60869),inactive: -0.017
20,ECM1 isoform 4 (UniProt Q16610),inactive: -0.001
21,DYSF isoform 13 (UniProt O75923),inactive: -0.089
22,DSC2 (UniProt Q02487),inactive: -0.088
23,DYNC1I2 isoform 2 (UniProt Q13409),inactive: 0.078
24,DTX3L (UniProt Q8TDB6),inactive: -0.157
25,EFR3A (UniProt Q14156),inactive: -0.171
26,E4F1 (UniProt Q66K89),inactive: -0.269
27,EHD4 (UniProt Q9H223),inactive: -0.026

# From the supplement of paper PMC10849652
